From patent CN109678957A
No constants are given. Whether binding was seen depends on the method and setting. Some binding calls cover weakened binding; strength is not graded here.

Chains of the proteins cited; added tags and fusions are not shown. Residues count along the entry.
UniProt Q969D9, residues 29-159: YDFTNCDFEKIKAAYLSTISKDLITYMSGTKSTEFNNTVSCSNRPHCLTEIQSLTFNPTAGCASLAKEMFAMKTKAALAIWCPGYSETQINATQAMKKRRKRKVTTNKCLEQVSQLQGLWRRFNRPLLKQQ

Target: Hela细胞上清中TSLP蛋白 (TSLP protein in the culture supernatant of the human cervical cancer cell line Hela) (human) (UniProt Q969D9)
Assay: sandwich ELISA, antibody coated as capture antibody at 0.1 mg/ml, Hela cell supernatant

binding: binds
B1: 抗人TSLP单克隆抗体 (anti-human TSLP monoclonal antibody, from hybridoma ascites, Example 3) (antibody, IgG1, V domains shown)
VH: QIQLVQSGPELKKPGETVKISCKASGYTFTNYGMNWVKQAPGKGLKWMGWINTYTGEPTYADDFKGRFAFSLETSASTAYLQINNLKNEDMATYFCARGLTGTRGRFAYWGQGTLVTVSA
VL: DIVMTQSHKFMSTSVGDRVSITCKASQDVSTAVAWYQQKPGQSPKLLIYWASTRHTGVPDRFTGSGSGTDYTLTISSVQAEDLALYYCQQHYSTPPTFGGGTKLEIK
